Reference: the supplement of paper PMC4604168 (melanoma cell lines)
This is one part of the list. Repeats are few or missing, and single values can be far off.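 Imaging used 1,536-well plates; nuclei positive for cleaved PARP by antibody were divided by total DNA-stained nuclei to yield the apoptosis fraction. Doses for screening kept most cells viable, and cell lines differ markedly in resting and induced cleaved-PARP levels.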

Columns and labels:
Assay in all cases: cleaved PARP positive nuclei fraction relative to DMSO control; melanoma cells; higher = more apoptosis
Conditions in all cases: library dose: low library concentration; 72 h
MZ2-MEL = tested on: MZ2-MEL
MeWo = tested on: MeWo
RPMI7951 = tested on: RPMI7951
RVH-421 = tested on: RVH-421
SkMel28 = tested on: SkMel28
SkMel30 = tested on: SkMel30
SkMel5 = tested on: SkMel5
UACC257 = tested on: UACC257
UACC62 = tested on: UACC62
WM115 = tested on: WM115
WM1716 = tested on: WM1716
WM1745 = tested on: WM1745
WM3526 = tested on: WM3526
WM3619 = tested on: WM3619
WM451Lu = tested on: WM451Lu

Row | SMILES | cleaved PARP positive nuclei fraction (MZ2-MEL) | cleaved PARP positive nuclei fraction (MeWo) | cleaved PARP positive nuclei fraction (RPMI7951) | cleaved PARP positive nuclei fraction (RVH-421) | cleaved PARP positive nuclei fraction (SkMel28) | cleaved PARP positive nuclei fraction (SkMel30) | cleaved PARP positive nuclei fraction (SkMel5) | cleaved PARP positive nuclei fraction (UACC257) | cleaved PARP positive nuclei fraction (UACC62) | cleaved PARP positive nuclei fraction (WM115) | cleaved PARP positive nuclei fraction (WM1716) | cleaved PARP positive nuclei fraction (WM1745) | cleaved PARP positive nuclei fraction (WM3526) | cleaved PARP positive nuclei fraction (WM3619) | cleaved PARP positive nuclei fraction (WM451Lu)
1 | COC(=O)c1sccc1S(=O)(=O)Nc1ccc(Nc2ccccc2)cc1OC + CCCCCCCCCCCC1=C(O)C(=O)C=C(O)C1=O [Embelin] (first compound 1 µM, partner dose 1.2 µM) | 159% | 141% | 91.1% | 49.1% | 143% | 33.2% | 111% | 134% | 92.6% | 138% | 79% | 101% | 56.5% | 73.3% | 52.8%
2 | NCC(=O)Nc1ccc(-n2nc(C(F)(F)F)cc2-c2ccc3c(ccc4ccccc43)c2)cc1 + O=C(Nc1ccccc1)c1cc([N+](=O)[O-])ccc1Cl [GW9662] (first compound 1 µM, partner dose 2 µM) | 210% | 404% | 42.5% | 102% | 136% | 38.4% | 63.5% | 244% | 180% | 53.2% | 111% | 107% | 324% | 93.8% | 72.8%
3 | Cc1cc([N+](=O)[O-])ccc1NS(=O)(=O)c1cc(Cl)ccc1Cl + Oc1nc(-c2ccc(C(F)(F)F)cc2)nc2c1CSCC2 [XAV939] (first compound 1 µM, partner dose 2 µM) | 82.7% | 30.3% | 47.6% | 99.2% | 86.2% | 12.7% | 33.6% | 80.6% | 55.4% | 120% | 183% | 214% | 328% | 76% | 55.9%
4 | CCc1ccc(CCOc2ccc(CC3SC(=O)NC3=O)cc2)nc1 (stereo not given) [pioglitazone] + CC(C)CCN1c2nc(Nc3cc(F)c(O)c(F)c3)ncc2N(C)C(=O)C1C [BID1870] (first compound 2 µM, partner dose 0.2 µM) | 83.8% | 244% | 90.8% | 147% | 159% | 47% | 38.8% | 107% | 50.7% | 199% | 153% | 111% | 147% | 84.9% | 221%
5 | Cn1cc(/C=C2\C(=O)Nc3cccnc32)c2ccccc21 + CCCCCCCCCCCC1=C(O)C(=O)C=C(O)C1=O [Embelin] (first compound 0.4 µM, partner dose 1.2 µM) | 36.7% | 69.2% | 151% | 79.1% | 158% | 348% | 143% | 126% | 303% | 208% | 53.3% | 107% | 67.4% | 91% | 58.1%
6 | COc1ccc(COc2ccc(Cc3cnc(N)nc3N)cc2OC)cc1 + COc1cc(N2CCC(N3CCN(C)CC3)CC2)ccc1Nc1ncc(Cl)c(Nc2ccccc2S(=O)(=O)C(C)C)n1 [NVP-TAE684] (first compound 1 µM, partner dose 0.08 µM) | 85.5% | 114% | 81% | 75.6% | 285% | 27.4% | 119% | 81.2% | 80.8% | 84.8% | 43.6% | 113% | 72.2% | 70.2% | 64.7%
7 | Cc1cc([N+](=O)[O-])ccc1NS(=O)(=O)c1cc(Cl)ccc1Cl + c1cc(-c2cnn3cc(-c4ccc(OCCN5CCCCC5)cc4)cnc23)ccn1 [Dorsomorphin] (first compound 1 µM, partner dose 0.4 µM) | 90.9% | 125% | 197% | 17.9% | 73.9% | 58.4% | 197% | 135% | 188% | 178% | 58.1% | 125% | 80.9% | 78.7% | 137%
8 | NCC(=O)Nc1ccc(-n2nc(C(F)(F)F)cc2-c2ccc3c(ccc4ccccc43)c2)cc1 + Oc1cc(-c2nc(-c3ccccc3)[nH]c2-c2ccncc2)ccc1Cl [L779450] (first compound 1 µM, partner dose 0.2 µM) | 245% | 188% | 89.9% | 24.3% | 62.5% | 78.1% | 60.7% | 151% | 319% | 176% | 137% | 106% | 102% | 75.7% | 397%
9 | COc1cc2c(Oc3ccc4[nH]c(C)cc4c3F)ncnc2cc1OCCCN1CCCC1 [cediranib] + Cn1cc(/C=C2\C(=O)Nc3cccnc32)c2ccccc21 [GW441756] (first compound 0.4 µM, partner dose 0.4 µM) | 159% | 99% | 43.3% | 29.2% | 150% | 92.6% | 90.1% | 167% | 47.3% | 48.3% | 44.1% | 115% | 75.3% | 63.7% | 52.4%
10 | O=c1cc(-c2cccc3c2Sc2ccccc2S3)oc(N2CCOCC2)c1 + CC(C)CCN1c2nc(Nc3cc(F)c(O)c(F)c3)ncc2N(C)C(=O)C1C [BID1870] (first compound 1 µM, partner dose 0.2 µM) | 152% | 170% | 170% | 107% | 47.3% | 37.8% | 61.1% | 62.7% | 139% | 102% | 61.3% | 110% | 83.7% | 102% | 105%
11 | COc1ccc2c(c1)CCC1C2CCC2(C)C(NCCCCCCN3C(=O)C=CC3=O)CCC12 (stereo not given) + COc1ccc(COc2ccc(Cc3cnc(N)nc3N)cc2OC)cc1 [GW2580] (first compound 0.4 µM, partner dose 1 µM) | 155% | 131% | 75.2% | 115% | 96% | 26.7% | 41.6% | 242% | 79.1% | 70.1% | 129% | 125% | 72.2% | 84.3% | 275%
12 | CN(NC(=O)CC(=O)NN(C)C(=S)c1ccccc1)C(=S)c1ccccc1 + O=c1cc(-c2cccc3c2Sc2ccccc2S3)oc(N2CCOCC2)c1 [KU55933] (first compound 0.006 µM, partner dose 1 µM) | 150% | 57.5% | 17.3% | 77.1% | 231% | 34.6% | 117% | 87.3% | 22.7% | 313% | 114% | 169% | 69.3% | 118% | 54.5%
13 | COc1cc2c(Oc3ccc4[nH]c(C)cc4c3F)ncnc2cc1OCCCN1CCCC1 [cediranib] + CCc1ccc(CCOc2ccc(CC3SC(=O)NC3=O)cc2)nc1 [pioglitazone] (first compound 0.4 µM, partner dose 2 µM) | 34.8% | 97% | 79.5% | 71.1% | 65.1% | 42.9% | 152% | 41.6% | 319% | 68% | 90.8% | 121% | 61.4% | 104% | 57%
14 | NCC(=O)Nc1ccc(-n2nc(C(F)(F)F)cc2-c2ccc3c(ccc4ccccc43)c2)cc1 + CC(C)CCN1c2nc(Nc3cc(F)c(O)c(F)c3)ncc2N(C)C(=O)C1C [BID1870] (first compound 1 µM, partner dose 0.2 µM) | 109% | 177% | 43.8% | 138% | 236% | 40.1% | 29.2% | 254% | 237% | 32.9% | 264% | 107% | 192% | 93.9% | 142%
15 | Cc1cc([N+](=O)[O-])ccc1NS(=O)(=O)c1cc(Cl)ccc1Cl + O=c1cc(-c2cccc3c2Sc2ccccc2S3)oc(N2CCOCC2)c1 [KU55933] (first compound 1 µM, partner dose 1 µM) | 101% | 58.5% | 80.6% | 56.7% | 270% | 539% | 186% | 151% | 113% | 131% | 23.4% | 120% | 73.7% | 84.4% | 58%
16 | Oc1nc(-c2ccc(C(F)(F)F)cc2)nc2c1CSCC2 + Cn1cc(/C=C2\C(=O)Nc3cccnc32)c2ccccc21 [GW441756] (first compound 2 µM, partner dose 0.4 µM) | 104% | 179% | 81.2% | 80.8% | 140% | 34.4% | 63.9% | 51.3% | 109% | 71.5% | 98.7% | 118% | 64.8% | 104% | 109%
17 | CCc1ccc(CCOc2ccc(CC3SC(=O)NC3=O)cc2)nc1 (stereo not given) [pioglitazone] + COc1cc(N2CCC(N3CCN(C)CC3)CC2)ccc1Nc1ncc(Cl)c(Nc2ccccc2S(=O)(=O)C(C)C)n1 [NVP-TAE684] (first compound 2 µM, partner dose 0.08 µM) | 117% | 136% | 113% | 84% | 220% | 244% | 106% | 127% | 81% | 245% | 110% | 128% | 102% | 84.4% | 131%
18 | NCC(=O)Nc1ccc(-n2nc(C(F)(F)F)cc2-c2ccc3c(ccc4ccccc43)c2)cc1 + COc1ccc(-c2ccc3c(N4CCOCC4)nc(N4C[C@@H](C)O[C@@H](C)C4)nc3n2)cc1CO [KU0063794] (first compound 1 µM, partner dose 0.02 µM) | 104% | 119% | 271% | 116% | 186% | 41.7% | 186% | 138% | 358% | 84.3% | 183% | 106% | 138% | 77.5% | 84%
19 | N#Cc1c(O)c2c(-c3ccc(-c4ccccc4O)cc3)csc2[nH]c1=O + c1cc(-c2cnn3cc(-c4ccc(OCCN5CCCCC5)cc4)cnc23)ccn1 [Dorsomorphin] (first compound 2 µM, partner dose 0.4 µM) | 69.9% | 106% | 87.6% | 35.8% | 115% | 24.8% | 58.8% | 228% | 166% | 180% | 132% | 103% | 266% | 84.6% | 114%
20 | Cn1cc(/C=C2\C(=O)Nc3cccnc32)c2ccccc21 + CC(C)CCN1c2nc(Nc3cc(F)c(O)c(F)c3)ncc2N(C)C(=O)C1C [BID1870] (first compound 0.4 µM, partner dose 0.2 µM) | 118% | 74.5% | 73.4% | 98.2% | 200% | 28.9% | 84.9% | 46.5% | 204% | 70% | 50.9% | 101% | 51.2% | 82.6% | 266%

Shown with tabs: entries from further up
Row	SMILES	cleaved PARP positive nuclei fraction (MZ2-MEL)	cleaved PARP positive nuclei fraction (MeWo)	cleaved PARP positive nuclei fraction (RPMI7951)	cleaved PARP positive nuclei fraction (RVH-421)	cleaved PARP positive nuclei fraction (SkMel28)	cleaved PARP positive nuclei fraction (SkMel30)	cleaved PARP positive nuclei fraction (SkMel5)	cleaved PARP positive nuclei fraction (UACC257)	cleaved PARP positive nuclei fraction (UACC62)	cleaved PARP positive nuclei fraction (WM115)	cleaved PARP positive nuclei fraction (WM1716)	cleaved PARP positive nuclei fraction (WM1745)	cleaved PARP positive nuclei fraction (WM3526)	cleaved PARP positive nuclei fraction (WM3619)	cleaved PARP positive nuclei fraction (WM451Lu)
12	CN(NC(=O)CC(=O)NN(C)C(=S)c1ccccc1)C(=S)c1ccccc1 + O=c1cc(-c2cccc3c2Sc2ccccc2S3)oc(N2CCOCC2)c1 [KU55933] (first compound 0.006 µM, partner dose 1 µM)	150%	57.5%	17.3%	77.1%	231%	34.6%	117%	87.3%	22.7%	313%	114%	169%	69.3%	118%	54.5%
15	Cc1cc([N+](=O)[O-])ccc1NS(=O)(=O)c1cc(Cl)ccc1Cl + O=c1cc(-c2cccc3c2Sc2ccccc2S3)oc(N2CCOCC2)c1 [KU55933] (first compound 1 µM, partner dose 1 µM)	101%	58.5%	80.6%	56.7%	270%	539%	186%	151%	113%	131%	23.4%	120%	73.7%	84.4%	58%
